Consider 7 sequences from paper PMC4948845.

By UniProt entry, the sequences of proteins in these tests, tags left out.
UniProt Q9ULG1, whole entry: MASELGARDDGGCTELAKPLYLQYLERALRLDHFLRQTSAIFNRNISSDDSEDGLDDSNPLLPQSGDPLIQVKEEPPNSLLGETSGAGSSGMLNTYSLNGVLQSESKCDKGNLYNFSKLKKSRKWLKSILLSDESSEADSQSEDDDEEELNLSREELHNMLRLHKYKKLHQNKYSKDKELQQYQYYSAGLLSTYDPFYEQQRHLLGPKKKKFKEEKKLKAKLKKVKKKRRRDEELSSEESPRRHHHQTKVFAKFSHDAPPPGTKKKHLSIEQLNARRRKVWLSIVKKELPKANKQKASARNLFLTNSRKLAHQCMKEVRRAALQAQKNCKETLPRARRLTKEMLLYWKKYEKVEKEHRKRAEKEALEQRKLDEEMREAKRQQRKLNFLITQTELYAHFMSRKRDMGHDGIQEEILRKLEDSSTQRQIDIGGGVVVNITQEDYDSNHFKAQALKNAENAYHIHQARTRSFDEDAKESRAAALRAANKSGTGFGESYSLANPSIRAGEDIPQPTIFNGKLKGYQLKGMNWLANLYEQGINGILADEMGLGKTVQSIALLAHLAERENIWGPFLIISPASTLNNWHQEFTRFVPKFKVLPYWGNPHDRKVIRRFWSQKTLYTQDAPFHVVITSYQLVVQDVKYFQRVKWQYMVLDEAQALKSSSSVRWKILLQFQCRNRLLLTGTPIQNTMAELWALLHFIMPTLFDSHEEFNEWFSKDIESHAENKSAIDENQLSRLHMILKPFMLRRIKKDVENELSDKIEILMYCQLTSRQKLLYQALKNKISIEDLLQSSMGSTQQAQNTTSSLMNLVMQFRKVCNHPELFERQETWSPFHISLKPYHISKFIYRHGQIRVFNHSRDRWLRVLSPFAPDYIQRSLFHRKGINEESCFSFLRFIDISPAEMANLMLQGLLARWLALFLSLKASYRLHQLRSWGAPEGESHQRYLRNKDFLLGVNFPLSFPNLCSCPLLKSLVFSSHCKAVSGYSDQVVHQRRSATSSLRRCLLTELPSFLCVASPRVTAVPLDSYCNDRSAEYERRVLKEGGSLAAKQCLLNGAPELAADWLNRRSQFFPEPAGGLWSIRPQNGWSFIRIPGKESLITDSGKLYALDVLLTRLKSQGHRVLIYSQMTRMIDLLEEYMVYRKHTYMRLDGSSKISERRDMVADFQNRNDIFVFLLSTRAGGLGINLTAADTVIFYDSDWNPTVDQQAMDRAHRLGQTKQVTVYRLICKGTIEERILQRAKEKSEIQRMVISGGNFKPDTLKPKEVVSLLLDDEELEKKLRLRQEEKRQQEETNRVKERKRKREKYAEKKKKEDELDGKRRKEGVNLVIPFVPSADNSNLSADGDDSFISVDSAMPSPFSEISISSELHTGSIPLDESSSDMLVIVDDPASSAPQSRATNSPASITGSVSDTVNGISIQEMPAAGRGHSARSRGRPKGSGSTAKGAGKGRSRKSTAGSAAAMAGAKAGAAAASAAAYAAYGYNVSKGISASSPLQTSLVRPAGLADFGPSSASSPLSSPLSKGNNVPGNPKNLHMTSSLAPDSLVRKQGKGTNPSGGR

The exact form of at least one protein or probe is not confirmed. At least one result comes from cells or an extract, where the contact may be indirect. For some of these results: No signal at the amounts used counts as a negative. For some of these results: A weaker result is weaker than the reference pair of the same experiment.

For series [1], the target named is INO80 (HEK293T nuclear extract) (Homo sapiens) (UniProt Q9ULG1). As to the kind of experiment: competition with a labelled probe. To be noted: 10 mM KCl, 100 mM NaCl, 1 mM EDTA, 10 mM DTT, 1 mM PMSF, 10% glycerol, 1 ug poly(dI-dC), 1 ug tRNA, protein in an extract.
Series [2] has the same target. Put plainly: EMSA supershift. To be noted: anti-INO80 (ab118787), self-competition almost complete at 1:5; 10 mM KCl, 100 mM NaCl, 1 mM EDTA, 10 mM DTT, 1 mM PMSF, 10% glycerol, 1 ug poly(dI-dC), 1 ug tRNA; protein in an extract; label: 5' Cy3 (probe), unlabeled as competitor. A general note: In EMSA bound probe runs differently from free probe, usually more slowly.
Setting [3] is: vs Cy3-N2, competes at higher concentration (1:5).

As for “CCCCGACAGCCCCCCGACAGCCCCCCGACAGCC (double strand) [M6]”, in series [1] (vs Cy3-N2, no displacement at 1:1, competed out at 1:5, decreased affinity), the binding result is on record as “binds more weakly”.
For “CCCCGGCAGCCCCCCGGCAGCCCCCCGGCAGCC (double strand) [M3]”, the binding result in series [1] (vs Cy3-N2, unable to compete) is “no binding”.
As for “CCCCGTCAGCCCCCCGTCAGCCCCCCGTCAGCC (double strand) [INO80 binding motif, 3 repeats (33-mer)]”, the binding result in series [2] is listed as “binds”.
For “CCCCGTCAGTTCCCCGTCAGTTCCCCGTCAGTT (double strand) [M1]”, in series [1] (vs Cy3-N2, unable to compete), the binding result is on record as “no binding”.
For “CCCCGTCATCCCCCCGTCATCCCCCCGTCATCC (double strand) [M2]”, in series [1] (setting [3]), the binding result is on record as “binds”.
On the same count and under the same terms, next, “CCCCGTCCGCCCCCCGTCCGCCCCCCGTCCGCC (double strand) [M5]”: “binds”; “CCCCTTCAGCCCCCCTTCAGCCCCCCTTCAGCC (double strand) [M4]”: “binds”.
